The assay deals with HEK293A TEAD-LUC reporter. Description: TEAD-luciferase reporter activity (YAP activation), robust Z score vs plate; higher = stronger YAP/TEAD activation. Particulars: 24 h.

Values joined by “and” are separate entries in the source; they are usually repeats but may differ in a detail not shown here. Equal entries are not always repeated. Structures can show the parent of a compound that is named as a salt. The list shows a part of the results. Single values are uncertain here, since repeats match poorly.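 The human kidney-derived cells carry a stably integrated construct of eight TEAD-binding elements driving luciferase, read by luminescence in a drug-repurposing library screen. A compound counts as a hit when its signal is more than five robust Z scores above the plate mean.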

Turning to `O=c1[nH]c2sc(Cl)c(-c3ccc4c(c3O)CCCC4)c2c(O)c1-c1ccccc1`, the TEAD-luciferase reporter activity reads like this: (compound concentration: 200 nM) inactive: -0.702; (compound concentration: 2 uM) inactive: -0.723; (compound concentration: 10 uM) inactive: 3.54.

As to `COc1cc(C)c(Cc2cnc(N)nc2N)cc1OC`, the TEAD-luciferase reporter activity (compound concentration: 200 nM) was inactive: -0.0167, the TEAD-luciferase reporter activity (compound concentration: 2 uM) is inactive: 1.75 and the TEAD-luciferase reporter activity (compound concentration: 10 uM) is inactive: 2.87.

As to `COc1ccc2c(c1)CN(C(=O)C(=O)O)CCS2` [aladorian], the TEAD-luciferase reporter activity by setting is: (compound concentration: 200 nM) inactive: 0.843; (compound concentration: 2 uM) inactive: -2.05; (compound concentration: 10 uM) inactive: 0.805.

As to `CC1=C(CC(=O)NCc2ccncc2)c2cc(F)ccc2/C1=C/c1ccc(S(C)=O)cc1` (centres undefined), the TEAD-luciferase reporter activity is inactive: -2.11 (compound concentration: 200 nM), inactive: -1.22 (compound concentration: 2 uM) and inactive: 1.52 (compound concentration: 10 uM).

As for `O=C(C1CCCN1c1nc2ncccc2o1)N1CCCC1` (centres undefined), the TEAD-luciferase reporter activity runs as follows: (compound concentration: 200 nM) inactive: 0.158; (compound concentration: 10 uM) inactive: 2.53.

On to `O=S(=O)([O-])CCS`, for which the TEAD-luciferase reporter activity runs as follows: (compound concentration: 200 nM) inactive: -1.07; (compound concentration: 10 uM) inactive: -1.2.

`O=S(=O)([O-])CCS` [uromitexan]: for the setting “compound concentration: 2 uM”, the TEAD-luciferase reporter activity is inactive: -1.21.

Turning to `COc1ccc2c(c1)C(c1ccc(F)cc1)=C(CN1CCCC1)CO2` [AX-024 hydrochloride], the TEAD-luciferase reporter activity by setting is: (compound concentration: 200 nM) inactive: -1.41; (compound concentration: 2 uM) inactive: -1.1; (compound concentration: 10 uM) inactive: -0.847.

Consider `Cc1ccc(F)c(NC(=O)Nc2ccc(-c3cccc4[nH]nc(N)c34)cc2)c1` [Linifanib], for which the TEAD-luciferase reporter activity runs as follows: (compound concentration: 200 nM) inactive: -1.06; (compound concentration: 2 uM) inactive: 2.9; (compound concentration: 10 uM) inactive: -0.302.

In the case of `CN(C(=S)NN=C(c1ccccn1)c1ccccn1)C1CCCCC1`, the TEAD-luciferase reporter activity by setting is: (compound concentration: 200 nM) inactive: -0.366; (compound concentration: 2 uM) inactive: -0.611; (compound concentration: 10 uM) inactive: -0.409.

`CCCCN(CCCC)CC(O)c1cc(-c2ccc(Cl)cc2)nc2c(Cl)cc(Cl)cc12` (centres undefined): the TEAD-luciferase reporter activity reads like this: (compound concentration: 200 nM) inactive: 0.567; (compound concentration: 2 uM) inactive: -0.675; (compound concentration: 10 uM) inactive: 0.707.

For the compound `Oc1ccc2c(c1)CC[C@H](c1ccccc1)[C@H]2c1ccc(OCCN2CCCC2)cc1` [Lasofoxifene tartrate], the TEAD-luciferase reporter activity is inactive: -0.69 (compound concentration: 200 nM), inactive: -0.257 (compound concentration: 2 uM) and inactive: 0.175 (compound concentration: 10 uM).

As to `COc1ccc(CS(=O)c2ncccc2C(=O)Nc2ccnc(N(C)C)c2)c(OC)c1` (centres undefined), the TEAD-luciferase reporter activity by setting is: (compound concentration: 200 nM) inactive: 2.34; (compound concentration: 2 uM) inactive: 0.495; (compound concentration: 10 uM) inactive: 1.9.

Regarding `O=c1[nH]c2ccc(C(F)(F)F)cc2c(-c2cc(Cl)ccc2O)c1CCO`, the TEAD-luciferase reporter activity (compound concentration: 200 nM) was inactive: 3.09, the TEAD-luciferase reporter activity (compound concentration: 2 uM) was inactive: -0.668 and the TEAD-luciferase reporter activity (compound concentration: 10 uM) was inactive: -0.102.

In the case of `COCC1CN(c2ccc(OCc3cccc(C(N)=O)c3)cc2)C(=O)O1` (centres undefined), the TEAD-luciferase reporter activity reads like this: (compound concentration: 200 nM) inactive: -1.16; (compound concentration: 2 uM) inactive: 2.6; (compound concentration: 10 uM) inactive: 1.48.

With `COc1ccc(CCNC(=O)CNc2cccc(C(N)=O)c2)cc1OC`, the TEAD-luciferase reporter activity reads like this: (compound concentration: 200 nM) inactive: -1.43; (compound concentration: 2 uM) inactive: -0.561; (compound concentration: 10 uM) inactive: -0.214.

With `CC(=O)Oc1ccccc1C(=O)Oc1c(C)occc1=O` [aspalatone], the TEAD-luciferase reporter activity is inactive: -0.268 (compound concentration: 200 nM), inactive: -1.96 (compound concentration: 2 uM) and inactive: 0.432 (compound concentration: 10 uM).

`CC/C(=C(\c1ccc(O)cc1)c1ccc(/C=C/C(=O)O)cc1)c1ccccc1`: the TEAD-luciferase reporter activity is inactive: -2.84 (compound concentration: 200 nM), inactive: -1.53 (compound concentration: 2 uM) and inactive: -2.73 (compound concentration: 10 uM).

In the case of `COCCN1CCC(N(Cc2ccc(-c3ccc(C(F)(F)F)cc3)cc2)C(=O)Cn2c(CCc3cccc(F)c3F)nc(=O)c3cccnc32)CC1`, the TEAD-luciferase reporter activity reads like this: (compound concentration: 200 nM) inactive: -0.452; (compound concentration: 2 uM) inactive: 0.328; (compound concentration: 10 uM) inactive: 0.344.

For `CCC(=O)O[C@]1(C(=O)COC(C)=O)CC[C@H]2[C@@H]3C[C@H](C)C4=CC(=O)C=C[C@]4(C)[C@H]3[C@@H](O)C[C@@]21C` [Methylprednisolone aceponate], the TEAD-luciferase reporter activity reads like this: (compound concentration: 200 nM) inactive: -0.42; (compound concentration: 2 uM) inactive: 2.98; (compound concentration: 10 uM) inactive: 0.843.

Regarding `CC12CCC(=O)C=C1CC[C@@H]1[C@@H]2[C@@H](O)CC2(C)[C@H]1CC[C@]2(O)C(=O)COC(=O)CCC1CCCC1` (some centres undefined), the TEAD-luciferase reporter activity reads like this: (compound concentration: 200 nM) inactive: 1.34; (compound concentration: 2 uM) inactive: -0.655; (compound concentration: 10 uM) inactive: 0.561.

As to `CCC(=O)N1Cc2ccccc2CC2(CCCCN2Cc2ccncc2)C1` (centres undefined), the TEAD-luciferase reporter activity runs as follows: (compound concentration: 200 nM) inactive: -2.81; (compound concentration: 10 uM) inactive: -0.74.

As for `C[C@@H]1CS/C(=N\NC(=O)C(=O)[C@H](NC(=O)C2CCCCCC2)C2CCOCC2)N1C`, the TEAD-luciferase reporter activity by setting is: (compound concentration: 200 nM) inactive: 4.12; (compound concentration: 2 uM) inactive: 1.06; (compound concentration: 10 uM) inactive: 1.03.

As to `OC[C@H]1O[C@@H](O[C@@H]2[C@H](O)[C@@H](O)[C@H](O[C@H]3[C@H](O)[C@@H](O)C(O)O[C@@H]3CO)O[C@@H]2CO)[C@H](O)[C@@H](O)[C@H]1O` (some centres undefined) [4'-Galactosyllactose], the TEAD-luciferase reporter activity was inactive: -0.394 (compound concentration: 200 nM), inactive: 0.86 (compound concentration: 2 uM) and inactive: 0.0612 (compound concentration: 10 uM).

Take `CC(=O)Nc1ccc(OCc2cccc(F)c2)cc1`: the TEAD-luciferase reporter activity was inactive: 0.58 (compound concentration: 200 nM), inactive: 1.83 (compound concentration: 2 uM) and active: 5.3 (compound concentration: 10 uM).

For the compound `N[C@@]1(C(=O)O)CS(=O)(=O)[C@H]2[C@H](C(=O)O)[C@H]21`, the TEAD-luciferase reporter activity is inactive: -1.53 (compound concentration: 200 nM); inactive: -0.689 and inactive: -1.19 (compound concentration: 2 uM); inactive: 1.41 (compound concentration: 10 uM).

`CC(C)(Cc1ccc(F)cc1)NC(=O)[C@H](CCC(=O)O)NC(=O)c1ccc(-c2ccccc2)cc1`: the TEAD-luciferase reporter activity was inactive: 0.134 (compound concentration: 200 nM), inactive: 0.00714 (compound concentration: 2 uM) and inactive: 2.78 (compound concentration: 10 uM).

Consider `CC1(C)CCC(C)(C)c2cc(NC(=O)c3ccc(C(=O)O)cc3)ccc21`, for which the TEAD-luciferase reporter activity (compound concentration: 200 nM) is inactive: -0.034, the TEAD-luciferase reporter activity (compound concentration: 2 uM) was inactive: -0.575 and the TEAD-luciferase reporter activity (compound concentration: 10 uM) is inactive: 3.05.

With `COc1ccc(-n2nc(O)c3[nH]c4cc(Cl)ccc4c(=O)c3c2=O)c(C)c1`, the TEAD-luciferase reporter activity (compound concentration: 200 nM) is inactive: -0.614, the TEAD-luciferase reporter activity (compound concentration: 2 uM) is inactive: -0.409 and the TEAD-luciferase reporter activity (compound concentration: 10 uM) was inactive: 0.653.

In the case of `COc1cccc(N2CCN(CC(=O)NC3c4c(O)c(C)cc(C)c4CC3(C)C)CC2)c1` (centres undefined), the TEAD-luciferase reporter activity reads like this: (compound concentration: 200 nM) inactive: -1.06; (compound concentration: 2 uM) inactive: -1.67; (compound concentration: 10 uM) inactive: -0.561.

As for `Cc1ccc(-c2cccc(CN3CCCC3C(=O)NCc3ccccc3Cl)c2)cc1Cl` (centres undefined), the TEAD-luciferase reporter activity is, setting by setting: (compound concentration: 200 nM) inactive: 4.43; (compound concentration: 10 uM) inactive: 0.82.

Consider `CC(O)C1Sc2ccccc2N(CCCN(C)C)C1c1ccccc1` (centres undefined), for which the TEAD-luciferase reporter activity (compound concentration: 200 nM) is inactive: -0.696, the TEAD-luciferase reporter activity (compound concentration: 2 uM) was inactive: -1.08 and the TEAD-luciferase reporter activity (compound concentration: 10 uM) was inactive: 1.29.

Take `Cn1cc(-c2cnc3ccc4ccc(CS(=O)(=O)NCc5ccccn5)cc4c(=O)c3c2)cn1`: the TEAD-luciferase reporter activity (compound concentration: 200 nM) is inactive: 1.31, the TEAD-luciferase reporter activity (compound concentration: 2 uM) was inactive: -2.36 and the TEAD-luciferase reporter activity (compound concentration: 10 uM) was inactive: 0.639.

Take `CC(=O)N1CCC(C(=O)N(CCCN2CCC(Cc3ccc(C(N)=O)cc3)CC2)c2ccc(C)c(Cl)c2)CC1`: the TEAD-luciferase reporter activity (compound concentration: 200 nM) is inactive: 0.192, the TEAD-luciferase reporter activity (compound concentration: 2 uM) is inactive: -0.951 and the TEAD-luciferase reporter activity (compound concentration: 10 uM) was inactive: 1.96.

In the case of `CC12CC[C@](C)(C(=O)O)C[C@@H]1C1=CC(=O)[C@@H]3C4(C)CC[C@H](OC(=O)[C@H]5CCCC[C@H]5C(=O)O)C(C)(C)C4CCC3(C)[C@]1(C)CC2` (some centres undefined) [Cicloxolone], the TEAD-luciferase reporter activity by setting is: (compound concentration: 200 nM) inactive: 1.3; (compound concentration: 2 uM) inactive: -0.744; (compound concentration: 10 uM) inactive: 0.136.
